Patent US20030027218A1 (priority 1997, published 2003)
Positions of bridges follow the written chain, without caps; N, C: chain ends. *: point of attachment. Biotin = O=C1N[C@H]2[C@H](CS[C@H]2CCCCC(=O)*)N1

Tests used:
[1] = general procedure: Fmoc solid-phase peptide synthesis; Wang resin; PyBOP/HOBt/NMM; settings: whole synthesis, acetate for Compounds 10 and 12 after anion exchange
[2] = general procedure: Fmoc solid-phase peptide synthesis; Cl-Trt resin; PyBOP/HOBt/NMM; settings: whole synthesis, scale 140 umol, acetate for Compounds 10 and 12 after anion exchange

Substance Biotin-GRRLKLKVEQHVELYQKYSNNSWR-OH has a crude mass ([1]; scale 13.8 umol) of 44.2 mg and an isolated mass ([1]; scale 13.8 umol) of 10.3 mg.

In the case of “H-CVLLSRAELRLLRRLKLKC-OH (disulfide 1-19)”, the isolated mass [2] was 12.2 mg.

Work on H-LKLKVEQHVELYQKYSNNSWR-OH yielded a crude mass ([1]; scale 23 umol) of 20.9 mg and an isolated mass ([1]; scale 23 umol) of 7.8 mg.

Substance H-LQSSRHRRALDTNYSFSSTEKNC-OH has a crude mass ([1]; scale 62.5 umol) of 145 mg and an isolated mass ([1]; scale 62.5 umol) of 25.5 mg.

H-LSTCKTIDMELVKRKR-OH gave a crude mass ([1]; scale 23 umol) of 59.8 mg and an isolated mass ([1]; scale 23 umol) of 7.7 mg.

In the case of H-LSTSKTIDMELV-OH, the crude mass ([1]; scale 25.0 umol) was 49.0 mg and the isolated mass ([1]; scale 25.0 umol) was 20.2 mg.

In the case of H-LSTSKTIDMELVKR-OH, the crude mass ([1]; scale 25.0 umol) was 18.3 mg and the isolated mass ([1]; scale 25.0 umol) was 4.7 mg.

H-LSTSKTIDMELVKRKRI-OH showed an isolated mass ([1]; scale 25.0 umol) of 26.7 mg.

For H-LSTSKTIDMELVKRKRIEAIRG-OH, the crude mass ([1]; scale 33 umol) was 115.3 mg and the isolated mass ([1]; scale 33 umol) was 63.3 mg.

Work on H-LSTSKTIDMELVKRKRIEAIRGC-OH yielded a crude mass ([1]; scale 33 umol) of 103.2 mg and an isolated mass ([1]; scale 33 umol) of 25.4 mg.

With H-LVKRKRIEAIRG-OH the crude mass ([1]; scale 25.0 umol) was 48.7 mg and the isolated mass ([1]; scale 25.0 umol) was 35.5 mg.

Work on H-PVLLSRAELRLLRRLKLKVEQHVC-OH yielded a crude mass ([1]; scale 100 umol) of 320 mg and an isolated mass ([1]; scale 100 umol) of 26.4 mg.

H-TIDMELVKRKRIEAIRG-OH gave a crude mass ([1]; scale 25 umol) of 58.3 mg and an isolated mass ([1]; scale 25 umol) of 22.6 mg.
